Reference: patent publication US11345700B2, “Methods of preparing inhibitors of influenza viruses replication” (priority 2013, dated 2022)
Where two headings read alike, the source gives them in different places. At least one compound was matched to its structure with a doubt left. Marks after values point to notes of the source that are not given here.

How the values were obtained:
[1] = test system: influenza A/PR/8/34; assay: In vivo combination of Compound (1) with zanamivir, influenza A challenge in mice; settings: combination therapy with Compound (1) and zanamivir
Description: Efficiency quotient, a composite measure of survival, bodyweight loss and lung function (% survival/(% body weight loss at Day 8)*(Penh at Day 6)) is summarized in Table 19B.

[2] = test system: influenza B virus; assay: Antiviral activity in MDCK cells measured by ATP levels (CellTiter-Glo), influenza B; type: cell-based
[3] = test system: influenza A/Wisconsin/67/2005 (H3N2) challenge strain virus; assay: Human influenza challenge: clinical and influenza-like symptom scores; type: in vivo, healthy volunteers (humans); settings: 1200/600 mg dose group
Method: (§1) Subjects underwent thrice daily nasal swabs, and kept thrice daily score cards for clinical symptoms from Days 1-7, and were discharged from the facility on Day 8, with safety follow-up at approximately Day 28. Nasal swabs were assayed for influenza virus in cell culture (primary analysis) and by qRT-PCR (secondary analysis).
Subjects recorded clinical symptoms three times a day in diaries. An AUC of clinical and influenza-like symptom scores from Day 1 through Day 7 was calculated.

[4] = test system: influenza A; assay: Mouse model of influenza A: lung viral titers; type: in vivo, mice; settings: 3, 10, 30 mg/kg BID from 24 h post infection; lung harvest day 6
[5] = test system: Influenza A/California/04/2009 (pndH1N1) virus; type: in vivo, BALB/c mice
[6] = test system: influenza A virus; assay: Mouse influenza A model: prophylactic dose response and delayed treatment, survival and body weight loss; type: in vivo, mice
Description: The prophylactic dose response of Compound (1) was investigated in the mouse influenza A model. […] All of the mice that received vehicle alone succumbed to the infection by study day 9 and had lost, on average, ˜32% of their body weight (BW).
All vehicle controls succumbed to disease by study days 8 or 9.

[7] = test system: influenza A/Wisconsin/67/2005 (H3N2) challenge strain virus; assay: Human influenza challenge: rates of seroconversion; type: in vivo, healthy volunteers (humans); settings: dosed 24 h after influenza inoculation
[8] = test system: influenza A strains; type: cell-based, influenza A virus; settings: MDCK cells; H1N1, H3N2, pandemic 2009 H1N1 and H5N1 strains
[9] = test system: influenza A/Wisconsin/67/2005 (H3N2) challenge strain virus; assay: Human live attenuated influenza challenge: nasal viral shedding by TCID50 cell culture assay; type: in vivo, healthy volunteers (humans)
Method: as §1
Additional FA group analyses were performed (data not shown).

[10] = test system: Influenza A/Victoria/3/75 (H3N2) virus; type: in vivo, BALB/c mice
[11] = test system: Influenza A/Vietnam/1203/2004 (H5N1) virus; type: in vivo, BALB/c mice; settings: 10 mg/kg p.o. twice a day for 10 days; Treatment (+48 h)
[12] = 3 mg/kg p.o. twice a day for 10 days starting 2 hours prior to virus exposure
[13] = 10 mg/kg p.o. twice a day for 10 days starting 2 hours prior to virus exposure
[14] = 1, 3 or 10 mg/kg BID for 10 days, initiated 2 h prior to infection

O=C(O)[C@H]1[C@H]2CC[C@H](CC2)[C@@H]1Nc1nc(-c2c[nH]c3ncc(F)cc23)ncc1F [Compound (1)]
survival benefit of combination therapy [1]: extra survival benefit | activity against influenza B virus [2]: limited activity | median duration of influenza-like symptoms versus placebo ([3]; P<0.001): statistically significant reduction | median duration of composite clinical symptoms versus placebo ([3]; P=0.001): statistically significant reduction | median AUC of influenza-like symptoms versus placebo ([3]; P=0.040): statistically significant reduction | reduction in lung viral titers compared with oseltamivir- and vehicle-administered animals [4]: robust, statistically significant reductions in lung viral titers | Survivors/Total ([5]; 1 mg/kg p.o. twice a day for 10 days starting 2 hours prior to virus exposure): 10/10*** | Survivors/Total [5, 12]: 9/9*** | Survivors/Total [5, 13]: 10/10*** | BW loss ([6]; 0.3 mg/kg BID for 10 days, initiated 2 h prior to infection): significant BW loss | BW loss [6, 14]: dose-dependent reduction in BW loss | survival [6, 14]: complete survival | survival ([6]; 3 or 10 mg/kg BID, dosing initiated 96 h post infection): complete survival | protection ([6]; 3 or 10 mg/kg BID, initiation of dosing delayed 120 h post infection): partial protection | rates of seroconversion versus placebo (4-fold or greater increase in anti-influenza titer) [7]: no difference in rates of seroconversion | activity against all influenza A strains tested [8]: potent activity | peak viral shedding versus pooled placebo ([9]; 1200/600 mg dose group, 400 mg dose group and pooled Compound (1) dose groups): significant reductions | AUC viral shedding versus pooled placebo ([9]; 1200/600 mg dose group, P=0.010, Wilcoxon rank-sum test): statistically significant reduction | dose response trend in median AUC viral shedding in nasal swabs ([9]; Days 1-7, TCID50 cell culture, FA set, P=0.036, Jonckheere-Terpstra trend test): statistically significant dose response trend | Survivors/Total [10, 12]: 10/10*** | Survivors/Total [10, 13]: 10/10*** | Survivors/Total [11]: complete protection
